Measured values reported in PubChem BioAssay AID588497 (NMMLSC, 2011).
Screen size: about 360,000 compounds; about 780 (0.22%) were called active. This list was built around the results that the source calls inconclusive (neither active nor inactive); the mix of calls is not that of the screen. Cut-off read from the data, not from the text of the source: active = inhibition above about 35% (passing the limit was not always enough); inconclusive = no clear call, values can overlap the other calls.

test system: Botulinum neurotoxin type F light chain protease (Clostridium botulinum); experiment: BoNT/F light chain protease inhibitors, primary screen, biochemical, flow cytometry, MLPCN library (AID 588497); conditions: Multiplex microsphere protease cleavage assay, at 10 µM, active compounds read high; note: plate controls were buffer without enzyme for full effect and enzyme alone for no effect

SMILES | inhibition
O=C(O)CC1(CC(=O)Nc2ccc3c(c2)OCCCO3)CCCCC1 | inconclusive: 16.3%
O=[N+]([O-])c1c(NCCCO)cc(Sc2nc3ccccc3s2)c2nonc12 | inactive: 1.9%
N#CCNC(=O)C1CC(=O)N(CCc2ccc(F)cc2)C1 (stereo not drawn) | inconclusive: -23.8%
CCOCCc1c(O)nc(SC)[nH]c1=O | inconclusive: -24.4%
COc1ccc(-c2sc(C(=O)c3ccc(Cl)cc3Cl)cc2CC(=O)O)cc1 | inconclusive: 6.6%
O=C(C#Cc1ccccc1)Nc1ccc(F)cc1 | inconclusive: -23.5%
CC1CCC2(CC1)NC(=O)N(NC(=O)CCc1c[nH]c3ccccc13)C2=O (stereo not drawn) | inconclusive: -54.9%
CCOC(=O)c1[nH]cnc1C(=O)N1CCC(C)CC1 | inactive: -0.3%
COc1ccc(-n2c(=O)[nH]c3ccccc3c2=O)cc1 | inconclusive: 5.5%
Cc1ccc(S(=O)(=O)N2CCN(C(=O)Cc3c(F)cccc3Cl)CC2)cc1 | inactive: -4.1%
O=C(Nc1ccc(Cl)cc1Cl)c1csc(-c2cccnc2)n1 | inconclusive: 17.1%
Cc1ccc(S(=O)(=O)N(C)CC(=O)NNC(=O)Cc2ccccc2F)cc1 | inactive: -2.9%
Cc1nc2ccc(OC(=O)c3ccccc3)cc2s1 | inconclusive: 6.9%
Cc1cc(Cl)ccc1NNC(=O)c1c(C)noc1C | inconclusive: -102%
CCOC(=O)C1CCN(CC(=O)c2c(C)n(C)c3ccc(OC)cc23)CC1 | active: 38.6%
CCC(C)N(C(=O)CSc1nnc(-c2cccs2)n1C1CC1)C1CCS(=O)(=O)C1 (stereo not drawn) | inconclusive: -0.8%
Cc1ccc(-n2c(=O)c3c4c(sc3n3c(=S)[nH]nc23)CCC4)cc1 | inconclusive: -12.8%
CCOc1ccc(S(=O)(=O)N2CCOCC2)c2ccccc12 | inconclusive: 7.8%
Cc1n[nH]c(=O)c2c(NC(=O)CSc3nncs3)oc(C)c12 | inactive: 2.7%
COC(=O)c1cnc(NNS(=O)(=O)c2ccc(C(F)(F)F)cc2)nc1C(F)(F)F | inconclusive: 37.7%
COc1ccc(CCC(C)N2CCOCC2)cc1 (stereo not drawn) | inconclusive: 28.3%
Cc1nc2ccccc2c(=O)n1/N=C/C=C/c1ccccc1 | inconclusive: 58.7%
CCC1(c2ccc(F)cc2)NC(=O)N(CC(=O)Nc2cccc(S(=O)(=O)N3CCCCC3)c2)C1=O (stereo not drawn) | inconclusive: -14.9%
O=C(c1c(F)cccc1F)N1CCCc2ccccc21 | inconclusive: -26.5%

SMILES | inhibition
CC(C)C(=O)Nc1c2c(nn1-c1ccc([N+](=O)[O-])cc1)CS(=O)(=O)C2 | inconclusive: -3.7%
Cc1cccc(C(=O)c2cn[nH]c2-c2ccc(C)cc2O)c1 | inconclusive: -0.9%
Cc1ccc(NC(=O)N2CCCC2C(=O)NCc2ccccc2Cl)cc1 (stereo not drawn) | inconclusive: 28.3%
COc1ccc(OC)c(-n2nnnc2SCC(=O)Nc2ccc3c(c2)OCCO3)c1 | inactive: -3.1%
COc1cc(Nc2ccn3nc(-c4ccccc4Cl)cc3n2)cc(OC)c1OC | inactive: -0.9%
CN(C)c1nc(OCC(=O)NC(C)(C)C)nc(N(C)C)n1 | inconclusive: -18.5%
O=C(N/N=C/C(Br)=C/c1ccccc1)c1cnccn1 | inconclusive: 123%
Cc1ccc(NC(=O)CCSc2nnc(C)o2)cc1 | inconclusive: 3%
CC(=O)Nc1nnc(/C=C/c2cccc([N+](=O)[O-])c2)s1 | active: 63.1%
NCc1cc2c3c(c1)CCCN3CCC2 | inconclusive: -232%
OCc1ccccc1CN1CCCCCC1 | inconclusive: -19.2%
COc1ccccc1C(=O)N1CCC(N2CCN(c3ccccc3OC)CC2)CC1 | inconclusive: -24.5%
CCN(CC)C(=O)CSc1nnc(-c2ccccn2)n1-c1ccc(C)c(C)c1 | inconclusive: 2.3%
O=C(Nc1cccc2ncccc12)c1ccccc1F | inactive: 10.3%
CCc1ccccc1NC(=O)C1CCCC1 | inconclusive: 35.1%
Cc1ccc(C2=NCCn3nc4cc([N+](=O)[O-])ccc4c32)cc1 | inactive: 3.4%
Cc1ccc(NC(=O)N2CCCC2C(=O)Nc2ccc(-n3cnnn3)c(C)c2)cc1 (stereo not drawn) | inconclusive: -52.3%
CCNC(=O)c1ccccc1-c1nc(-c2ccccc2)no1 | inconclusive: -13.2%
COC(=O)c1ccc(Cn2nc([N+](=O)[O-])c(Br)c2C)cc1 | inconclusive: 29.2%
CCC1CCCN1Cn1cnc2c([nH]c3ccc(C)cc32)c1=O (stereo not drawn) | inactive: -4%
COn1c(SC(C)C)nc2ccccc2c1=O | inactive: 7%
O=C(N/N=C/c1ccccc1)c1ccc(-c2ccccc2)cc1 | inconclusive: 18.8%
Cc1cc(C(=O)Nc2cccc(S(=O)(=O)N3CCOCC3)c2)c2ccccc2n1 | inactive: -3.9%
NNc1nnc2c3cc(F)ccc3n(Cc3ccccc3)c2n1 | inconclusive: 84.8%

Random excerpt: six compounds from above
SMILES | inhibition
Cc1nc2ccc(OC(=O)c3ccccc3)cc2s1 | inconclusive: 6.9%
CCNC(=O)c1ccccc1-c1nc(-c2ccccc2)no1 | inconclusive: -13.2%
Cc1ccc(NC(=O)N2CCCC2C(=O)NCc2ccccc2Cl)cc1 (stereo not drawn) | inconclusive: 28.3%
COc1cc(Nc2ccn3nc(-c4ccccc4Cl)cc3n2)cc(OC)c1OC | inactive: -0.9%
Cc1cccc(C(=O)c2cn[nH]c2-c2ccc(C)cc2O)c1 | inconclusive: -0.9%
COn1c(SC(C)C)nc2ccccc2c1=O | inactive: 7%

(more compounds)

SMILES | inhibition
O=C(NCCC1CC1(Cl)Cl)Nc1ccccc1 (stereo not drawn) | inconclusive: -20.8%
COC(=O)COc1c(/C=C\c2nc(O)c([N+](=O)[O-])c(=O)[nH]2)cccc1OC | inconclusive: -12.9%
CCCN1CCc2c(sc(NC(=S)NC(=O)c3ccccc3)c2C#N)C1 | inactive: -105%
CCc1nc2c(OCc3ccc(Cl)cc3Cl)cccn2c1N(C)C(=O)CC(C)C | inactive: -1.8%
COc1ccc(-c2cc(C(=O)Nc3c(C)nn(Cc4ccccc4)c3C)no2)cc1 | inactive: -5.5%
CCOc1c(N2CCCCC2)c(=O)c1=O | inconclusive: -14%
CC(=O)c1ccc(NC(=O)CN2CCCC2)cc1 | inconclusive: 50.9%
O=C(C[n+]1ccccc1)N/N=C/c1ccc(Cl)c(Cl)c1 | inconclusive: -37.3%
COc1cccc(Cc2n[nH]c(=S)n2Cc2ccco2)c1 | inconclusive: 54.4%
COC(=O)/C(=C\c1ccc2c(c1)c1ccccc1n2C)NC(=O)c1ccccc1 | inactive: -4.3%
Cc1cc(C(=O)Nc2ccc(N3CCOCC3)c(Cl)c2)c(C)o1 | inconclusive: -64.8%
COc1ccccc1NC(=O)CS(=O)(=O)c1cn(CC(=O)N2CCCC2)c2ccccc12 | inactive: -0.8%
Cc1oc2ccc(O)cc2c1C(=O)c1ccccc1 | inconclusive: 3.3%
COc1cc(C(=O)O/N=C(\N)c2cccc([N+](=O)[O-])c2)cc(OC)c1OC | inconclusive: 16.1%
C=CCn1c(O)c(C(CC)=NCc2ccco2)c(=O)[nH]c1=O | inconclusive: -74.4%
O=C(Nc1cccc([N+](=O)[O-])c1)C1C2CC/C=C\CCC21 (stereo not drawn) | inconclusive: -7.5%
CCNc1ccc(S(=O)(=O)N(C)C)cc1NCC(=O)Nc1ccccc1Br | active: 40.8%
CNc1cncc(-c2cc(OC)ccc2OC)n1 | inactive: -8.8%
COC(=O)c1c(C)[nH]c(C(=O)OC(C)C(=O)NC2CCCCC2C)c1C (stereo not drawn) | inactive: -5.4%
CCN(C(=O)CSc1nc(-c2ccccc2)cn1N)c1c(N)n(Cc2ccccc2)c(=O)[nH]c1=O | inconclusive: 8.3%
Cc1ccc(C)c(N2CCN(c3ccc([N+](=O)[O-])cn3)CC2)c1 | inconclusive: -43.5%
CCOC(=O)N1CCN(c2c(-c3ccccc3)c3cc(Cl)ccc3[nH]c2=O)CC1 | inactive: 9.2%
CCc1nc(N2CCN(C(=O)CCl)CC2)c2c3c(sc2n1)CC(C)CC3 (stereo not drawn) | inconclusive: 69.8%
CN(/N=C/c1cc(Br)cc(Br)c1O)c1cccc(C(F)(F)F)n1 | inconclusive: -6.9%

SMILES | inhibition
COc1ccc(C(=O)Cn2c(NCCCl)nc3ccccc32)cc1 | inconclusive: -2%
Cc1cccc(OC(=O)N2CCOCC2)c1 | inactive: -0.5%
N#Cc1ncc(Cc2ccccc2)nc1C#N | inconclusive: -34.3%
CN1CCN(C(=O)c2ccc(OCCOc3ccccc3)cc2)CC1 | inconclusive: -6%
CCCCNC(=S)NNC(=O)c1csc(C)c1 | inactive: -1.6%
O=C(c1ccccc1F)N(Cc1cccs1)C1CCS(=O)(=O)C1 (stereo not drawn) | inactive: 3.5%
C=CCNC(=O)c1ccc(OC)cc1 | inconclusive: 5.5%
Oc1ccccc1C1=NN(c2ccccc2)C(c2ccccc2)C1 (stereo not drawn) | inconclusive: -21.4%
COc1ccc(C2/C(=C(/O)c3ccc(F)cc3)C(=O)C(=O)N2c2ccccn2)cc1OC (stereo not drawn) | inconclusive: -9.7%
COc1ccccc1Nc1nc(NCc2ccco2)c2ccccc2n1 | inconclusive: -14.6%
CCOC(=O)C(C)n1cnc2scc(-c3ccc(C)c(C)c3)c2c1=O (stereo not drawn) | inconclusive: -15.5%
CCOc1ccc(-c2nc(CSc3nncs3)cs2)cc1OC | active: 40.6%
COc1ccc(NC(=O)CSc2nnc(-c3ccoc3C)n2CCc2ccccc2)cc1 | inconclusive: 19.8%
CC(=O)c1ccc(-c2ccccc2OC(F)(F)F)o1 | inconclusive: 29.5%
NC(=O)c1ncn([C@@H]2O[C@H](CNCc3cccc(OC4CCCC4)c3)[C@@H](O)[C@H]2O)n1 | inactive: -6.8%
COc1cccc(NC(=O)N2CCN(c3nc(-c4cccc(OC)c4)cs3)CC2)c1 | inactive: -1.5%
CN1CCN(CCCOc2ccc(-c3ccccc3)cc2)CC1 | inconclusive: -38.9%
Cc1cc(C)cc(-n2c(C)cc(C(=O)CSc3nnnn3C)c2C)c1 | inconclusive: 13.9%
CC(=O)Nc1ccc(Cl)c(C(N)=O)c1 | inactive: -1.8%
COc1cc2c(cc1OC)C(c1cc(Br)c(OC)c(OC)c1)CC(=O)N2 (stereo not drawn) | inconclusive: -13.7%
CN1OC[C@@H]2CN(Cc3cc(Cl)cc(Cl)c3)[C@H](c3cccc(-c4ccccc4)c3)C[C@@H]21 | inactive: 5.7%
